Test results published in doi:10.1101/2021.09.06.459192.
Results are given in words; binding and its absence hold for the method and conditions named. In cells and extracts the contact can be indirect. Some results given as binding are weak or reduced against the parent protein; the word gives no strength.

The chains behind the UniProt entries cited, without tags or fusion partners.
UniProt P42945: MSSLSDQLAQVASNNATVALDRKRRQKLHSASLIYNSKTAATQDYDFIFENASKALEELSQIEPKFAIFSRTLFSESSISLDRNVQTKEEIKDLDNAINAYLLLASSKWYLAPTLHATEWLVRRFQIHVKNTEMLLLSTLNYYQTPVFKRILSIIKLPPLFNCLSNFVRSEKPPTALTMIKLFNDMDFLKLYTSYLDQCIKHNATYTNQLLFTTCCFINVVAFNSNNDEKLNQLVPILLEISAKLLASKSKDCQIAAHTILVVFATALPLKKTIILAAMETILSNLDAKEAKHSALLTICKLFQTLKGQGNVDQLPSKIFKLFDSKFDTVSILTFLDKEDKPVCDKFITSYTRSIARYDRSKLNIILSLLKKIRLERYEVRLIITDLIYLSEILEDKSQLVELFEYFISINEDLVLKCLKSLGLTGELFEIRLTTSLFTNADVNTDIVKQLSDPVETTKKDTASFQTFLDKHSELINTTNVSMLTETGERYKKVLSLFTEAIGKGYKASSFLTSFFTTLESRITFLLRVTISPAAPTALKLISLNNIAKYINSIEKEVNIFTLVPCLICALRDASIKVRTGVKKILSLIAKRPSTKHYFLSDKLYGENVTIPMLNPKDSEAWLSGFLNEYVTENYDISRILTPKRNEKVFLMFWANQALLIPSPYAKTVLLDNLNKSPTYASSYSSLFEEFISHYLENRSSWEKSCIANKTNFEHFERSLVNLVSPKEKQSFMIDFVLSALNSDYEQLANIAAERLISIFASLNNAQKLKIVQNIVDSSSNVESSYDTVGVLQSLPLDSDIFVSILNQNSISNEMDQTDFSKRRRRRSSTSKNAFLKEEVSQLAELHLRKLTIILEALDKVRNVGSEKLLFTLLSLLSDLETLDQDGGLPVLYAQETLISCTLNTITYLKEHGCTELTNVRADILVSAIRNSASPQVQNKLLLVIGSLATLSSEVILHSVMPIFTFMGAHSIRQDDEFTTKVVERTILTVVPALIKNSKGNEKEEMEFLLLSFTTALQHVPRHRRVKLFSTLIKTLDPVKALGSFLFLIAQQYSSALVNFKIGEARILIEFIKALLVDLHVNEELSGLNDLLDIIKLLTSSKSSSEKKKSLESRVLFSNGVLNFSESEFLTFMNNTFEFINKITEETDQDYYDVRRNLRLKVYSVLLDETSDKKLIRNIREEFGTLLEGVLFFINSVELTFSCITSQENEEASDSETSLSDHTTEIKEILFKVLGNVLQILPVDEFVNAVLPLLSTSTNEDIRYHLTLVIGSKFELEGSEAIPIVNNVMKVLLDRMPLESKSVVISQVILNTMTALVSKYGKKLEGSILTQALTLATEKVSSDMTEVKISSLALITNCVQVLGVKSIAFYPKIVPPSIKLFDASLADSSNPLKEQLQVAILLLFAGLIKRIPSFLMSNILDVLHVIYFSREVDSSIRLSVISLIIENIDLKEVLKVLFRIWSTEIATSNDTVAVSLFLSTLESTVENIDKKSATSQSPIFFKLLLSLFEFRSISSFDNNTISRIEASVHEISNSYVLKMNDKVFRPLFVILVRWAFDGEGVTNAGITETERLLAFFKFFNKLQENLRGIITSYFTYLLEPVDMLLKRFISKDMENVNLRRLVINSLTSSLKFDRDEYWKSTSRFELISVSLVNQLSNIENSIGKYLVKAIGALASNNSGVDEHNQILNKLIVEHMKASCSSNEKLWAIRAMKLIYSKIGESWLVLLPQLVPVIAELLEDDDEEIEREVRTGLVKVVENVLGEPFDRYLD

B1: Utp8 (protein, UniProt P53276 1-713)
chain: MPSLSQPFRLATLPKIASLSNFSLQADYVQVADGTFNESTNNITLGISGSSISQYIINPTPKLTFDYPIPSTNIITACNAEKGQANIDGNIEASTDDEANNEKTINTQKKRNVEIWAFGLMVNKGNYTLNVITKALEDTTDTSNDHLSESDIDNKAYTGSDEFLSQYKIKAKAKVMSIKIDTKNSLVIAILQNGLIEIFDFKLTLLHSFDISYDNLKYAKWFTENGTEYVFVLCPLQDDKVCYKLLELTDCGSGESSPIKELSSTIIEGFSFENSKLCYQFGKLYKLNQGKIYIYSLPHCQLQQVIEFPMVDKLSPGDDLISFQPVSVNRVLLTVNNVIYLLDLLHCSTLSQRELTHVKTFQLLKSAVINSEKSHNSKTIAIGISTKNGPNPTSSLEIINIDVGTNTLKDSLGKSFQVGNNDSSVILKPLFDDKDINDKRVKCNDVSGDSSVPVLHCNEVIEKLSALQDNDITSFDDIFFKELKIKEEHYTEKDRYISDPGFLNKVLDLIFGKFSGNDYPKTLTFLLTHPLFPLSRTRNLLSLLRDQPRLFKQAIVTCPNLPLNELLEELFSIRNRELLLDISFRILQDFTRDSIKQEMKKLSKLDVQNFIEFITSGGEDSSPECFNPSQSTQLFQLLSLVLDSIGLFSLEGALLENLTLYIDKQVEIAERNTELWNLIDTKGFQHGFASSTFDNGTSQKRALPTYTMEYLDI
B2: Utp13 (protein, UniProt Q05946 1-817)
chain: MDLKTSYKGISLNPIYAGSSAVATVSENGKILATPVLDEINIIDLTPGSRKILHKISNEDEQEITALKLTPDGQYLTYVSQAQLLKIFHLKTGKVVRSMKISSPSYILDADSTSTLLAVGGTDGSIIVVDIENGYITHSFKGHGGTISSLKFYGQLNSKIWLLASGDTNGMVKVWDLVKRKCLHTLQEHTSAVRGLDIIEVPDNDEPSLNLLSGGRDDIINLWDFNMKKKCKLLKTLPVNQQVESCGFLKDGDGKRIIYTAGGDAIFQLIDSESGSVLKRTNKPIEELFIIGVLPILSNSQMFLVLSDQTLQLINVEEDLKNDEDTIQVTSSIAGNHGIIADMRYVGPELNKLALATNSPSLRIIPVPDLSGPEASLPLDVEIYEGHEDLLNSLDATEDGLWIATASKDNTAIVWRYNENSCKFDIYAKYIGHSAAVTAVGLPNIVSKGYPEFLLTASNDLTIKKWIIPKPTASMDVQIIKVSEYTRHAHEKDINALSVSPNDSIFATASYDKTCKIWNLENGELEATLANHKRGLWDVSFCQYDKLLATSSGDKTVKIWSLDTFSVMKTLEGHTNAVQRCSFINKQKQLISCGADGLIKIWDCSSGECLKTLDGHNNRLWALSTMNDGDMIVSADADGVFQFWKDCTEQEIEEEQEKAKLQVEQEQSLQNYMSKGDWTNAFLLAMTLDHPMRLFNVLKRALGESRSRQDTEEGKIEVIFNEELDQAISILNDEQLILLMKRCRDWNTNAKTHTIAQRTIRCILMHHNIAKLSEIPGMVKIVDAIIPYTQRHFTRVDNLVEQSYILDYALVEMDKLF
B3: Rok1 (protein, UniProt P45818 1-564)
chain: MDIFRVLTRGASVKKESGPKAKAADYSVINGNDENHKEDNNESQIVKELDFFRNKRIISKVEDDREKTTENDSPNKEEKSGNDDGLIKPVITNTVEASALRKSYKGNVSGIDIPLPIGSFEDLISRFSFDKRLLNNLIENGFTEPTPIQCECIPVALNNRDVLACGPTGSGKTLAFLIPLVQQIIDDKQTAGLKGLIISPTKELANQIFIECFKLSYKIFLEKKRPLQVALLSKSLGAKLKNKVVSDKKYDIIISTPLRLIDVVKNEALDLSKVKHLIFDEADKLFDKTFVEQSDDILSACREPSLRKAMFSATIPSNVEEIAQSIMMDPVRVIIGHKEAANTNIEQKLIFCGNEEGKLIAIRQLVQEGEFKPPIIIFLESITRAKALYHELMYDRINVDVIHAERTALQRDRIIERFKTGELWCLICTDVLARGIDFKGVNLVINYDVPGSSQAYVHRIGRTGRGGRSGKAITFYTKQDSVAIKPIINVMKQSGCEVSEWMDKMAKMTRKEKESIKNGKAHKERKQITTVPKMDKAKRRRQQEMIAASKRRKNEELSKKHFSK
B4: Rcl1 (protein, UniProt Q08096 1-367)
chain: MSSSAPKYTTFQGSQNFRLRIVLATLSGKPIKIEKIRSGDLNPGLKDYEVSFLRLIESVTNGSVIEISYTGTTVIYRPGIIVGGASTHICPSSKPVGYFVEPMLYLAPFSKKKFSILFKGITASHNDAGIEAIKWGLMPVMEKFGVRECALHTLKRGSPPLGGGEVHLVVDSLIAQPITMHEIDRPIISSITGVAYSTRVSPSLVNRMIDGAKKVLKNLQCEVNITADVWRGENSGKSPGWGITLVAQSKQKGWSYFAEDIGDAGSIPEELGEKVACQLLEEISKSAAVGRNQLPLAIVYMVIGKEDIGRLRINKEQIDERFIILLRDIKKIFNTEVFLKPVDEADNEDMIATIKGIGFTNTSKKIA
B5: Enp1 (protein, UniProt P38333 1-483)
chain: MARASSTKARKQRHDPLLKDLDAAQGTLKKINKKKLAQNDAANHDAANEEDGYIDSKASRKILQLAKEQQDEIEGEELAESERNKQFEARFTTMSYDDEDEDEDEDEEAFGEDISDFEPEGDYKEEEEIVEIDEEDAAMFEQYFKKSDDFNSLSGSYNLADKIMASIREKESQVEDMQDDEPLANEQNTSRGNISSGLKSGEGVALPEKVIKAYTTVGSILKTWTHGKLPKLFKVIPSLRNWQDVIYVTNPEEWSPHVVYEATKLFVSNLTAKESQKFINLILLERFRDNIETSEDHSLNYHIYRAVKKSLYKPSAFFKGFLFPLVETGCNVREATIAGSVLAKVSVPALHSSAALSYLLRLPFSPPTTVFIKILLDKKYALPYQTVDDCVYYFMRFRILDDGSNGEDATRVLPVIWHKAFLTFAQRYKNDITQDQRDFLLETVRQRGHKDIGPEIRRELLAGASREFVDPQEANDDLMIDVN
B6: Bms1 (protein, UniProt Q08965 1-1183)
chain: MEQSNKQHRKAKEKNTAKKKLHTQGHNAKAFAVAAPGKMARTMQRSSDVNERKLHVPMVDRTPEDDPPPFIVAVVGPPGTGKTTLIRSLVRRMTKSTLNDIQGPITVVSGKHRRLTFLECPADDLNAMIDIAKIADLVLLLIDGNFGFEMETMEFLNIAQHHGMPRVLGVATHLDLFKSQSTLRASKKRLKHRFWTEVYQGAKLFYLSGVINGRYPDREILNLSRFISVMKFRPLKWRNEHPYMLADRFTDLTHPELIETQGLQIDRKVAIYGYLHGTPLPSAPGTRVHIAGVGDFSVAQIEKLPDPCPTPFYQQKLDDFEREKMKEEAKANGEITTASTTRRRKRLDDKDKLIYAPMSDVGGVLMDKDAVYIDIGKKNEEPSFVPGQERGEGEKLMTGLQSVEQSIAEKFDGVGLQLFSNGTELHEVADHEGMDVESGEESIEDDEGKSKGRTSLRKPRIYGKPVQEEDADIDNLPSDEEPYTNDDDVQDSEPRMVEIDFNNTGEQGAEKLALETDSEFEESEDEFSWERTAANKLKKTESKKRTWNIGKLIYMDNISPEECIRRWRGEDDDSKDESDIEEDVDDDFFRKKDGTVTKEGNKDHAVDLEKFVPYFDTFEKLAKKWKSVDAIKERFLGAGILGNDNKTKSDSNEGGEELYGDFEDLEDGNPSEQAEDNSDKESEDEDENEDTNGDDDNSFTNFDAEEKKDLTMEQEREMNAAKKEKLRAQFEIEEGENFKEDDENNEYDTWYELQKAKISKQLEINNIEYQEMTPEQRQRIEGFKAGSYVRIVFEKVPMEFVKNFNPKFPIVMGGLLPTEIKFGIVKARLRRHRWHKKILKTNDPLVLSLGWRRFQTLPIYTTTDSRTRTRMLKYTPEHTYCNAAFYGPLCSPNTPFCGVQIVANSDTGNGFRIAATGIVEEIDVNIEIVKKLKLVGFPYKIFKNTAFIKDMFSSAMEVARFEGAQIKTVSGIRGEIKRALSKPEGHYRAAFEDKILMSDIVILRSWYPVRVKKFYNPVTSLLLKEKTEWKGLRLTGQIRAAMNLETPSNPDSAYHKIERVERHFNGLKVPKAVQKELPFKSQIHQMKPQKKKTYMAKRAVVLGGDEKKARSFIQKVLTISKAKDSKRKEQKASQRKERLKKLAKMEEEKSQRDKEKKKEYFAQNGKRTTMGGDDESRPRKMRR

Each binder was assayed against Utp10-TAP (S. cerevisiae) (UniProt P42945) (assay: co-IP).

Row | binding | Binder
1 | binds | B1
2 | binds | B2
3 | binds | B3
4 | binds | B4
5 | binds | B5
6 | binds | B6
